The record followed here is PubChem BioAssay AID493014 (National Center for Advancing Translational Sciences (NCATS), 2011).

Each structure is given as a SMILES string. The list shows a part of the results. These are further read-outs of the screen, such as a control signal, another cell line or another target. No call is given for them. Most of these compounds were active or inconclusive in the main read-out, so they are no random draw. Words in brackets tell the shape of the fitted curve; partial curves, single points and poor fits give uncertain potencies.

The assay in a line: qHTS Assay to Find Inhibitors of Chronic Active B-Cell Receptor Signaling. The following applies: ABC-DLBCL IkBa-CBG/CBR reporter, luminescence ratio (green luciferase fused to IkBa over red control in TMD8 lymphoma cells), 4 h. Summed up:
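Doxycycline induced both beetle luciferases in TMD8 lymphoma cells; IKK-driven degradation limits the IkappaBalpha-fused green signal, while red luminescence normalises for cell number and nonspecific effects. Compounds tested up to 46 uM, 4 hrs.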
(In general: qHTS replaces the single test concentration by a dilution series.)

Where [1] appears, read: measured here: CBR red luminescence, cell number.
The mark [2] stands for this setting: measured here: IkBa-CBG green luminescence.

Usually AC50 stands for the concentration at which the activity in the assay is half-maximal. Consider `COCCCn1c(C23CC4CC(CC(C4)C2)C3)n[nH]c1=S`, for which, under setting [1], the concentration at half-maximal activity (AC50) is 12.6 µM [rising, single point].

Regarding `COc1ccc(/C=C(\C#N)C(=O)OC2CCOC2=O)cc1` (stereo not drawn), the AC50 under setting [1] was 2.51 µM [rising, full curve, poor fit].

For `COc1ccc(NC(=O)c2ccc3c(c2)NC(=O)CS3)cc1S(=O)(=O)Nc1ccc(Br)cc1`, under setting [1], the AC50 is 22.4 µM [falling, single point].

As to `O=C(CCN1CCCCC1)NNC(=S)NC(=O)c1ccc(Br)cc1`, under setting [1], the half-maximal activity concentration (AC50) was 35.5 µM [falling, single point].

As to `O=C1C=C(c2ccc3[nH]ccc3c2)C[C@@H](c2ccc(F)cc2)C1`, under setting [1], the concentration at half-maximal activity (AC50) is 0.58 µM [rising, full curve].

`O=c1c(-c2ccccc2)c[nH]n1-c1cccc([N+](=O)[O-])c1`: the half-maximal activity concentration (AC50) under setting [1] is 1.78 µM [falling, full curve].

On to `O=C(/C=C/c1ccccc1)NC1CCCc2ccccc21` (stereo not drawn), for which the half-maximal activity concentration (AC50) under setting [1] is 0.891 µM [falling, full curve, poor fit].

As to `CN(N=Nc1cccc([N+](=O)[O-])c1)c1cccc([N+](=O)[O-])c1`, the AC50 under setting [1] was 2.82 µM [rising, full curve].

As to `COc1ccc(CCNC(=O)CC2SC(=NCCc3ccccc3)NC2=O)cc1OC` (stereo not drawn), the AC50 under setting [1] was 2.31 µM [rising, partial curve, poor fit].

Turning to `O=C(CCCCCCCCC(=O)N/N=C/c1ccco1)N/N=C/c1ccco1`, the AC50 under setting [1] was 23.1 µM [falling, single point].

Consider `COc1ccc(OC)c(NC(=O)CNC(=O)Cn2c(C)cc3ccccc3c2=O)c1`, for which the AC50 under setting [1] was 0.92 µM [falling, full curve, poor fit].

With `CC(O)c1cccc(NC(=O)C2CCCCC2)c1` (stereo not drawn), the AC50 under setting [1] was 35.5 µM [rising, partial curve, poor fit].

For the molecule `Cc1ccc(NC(=O)/C=C/c2ccc([N+](=O)[O-])s2)c(C)c1`, under setting [1], the half-maximal activity concentration (AC50) is 6.51 µM [falling, partial curve, poor fit].

Consider `Cc1ccsc1/C=N/NC(=O)Nc1ccccc1`, for which the AC50 under setting [1] is 14.1 µM [falling, single point].

Consider `C[C@@H](C(=O)NCc1ccccc1)N1C(=O)C2CC=CCC2C1=O` (stereo partly drawn), for which, under setting [1], the AC50 is 0.291 µM [rising, full curve, poor fit].

Take `CC(C)(C)C(=O)Nc1nc(-c2ccccc2)ns1`: the half-maximal activity concentration (AC50) reads like this: under setting [1], 7.31 µM [falling, partial curve, poor fit]; under setting [2], 0.731 µM [rising, full curve].

In the case of `Cc1oc(-c2ccccc2F)nc1CN1CCC(C(=O)NCc2cccs2)CC1`, the AC50 under setting [1] is 17.8 µM [rising, partial curve, poor fit].

Take `COc1ccc(C(=O)OCCNC(=O)c2c(Cl)nc3ccccn23)cc1`: the AC50 under setting [1] was 15.8 µM [rising, single point].

For the molecule `COc1cccc(OC)c1C(=O)Nc1cccc(-c2ccc3nncn3n2)c1`, under setting [1], the AC50 was 35.5 µM [rising, partial curve, poor fit].

In the case of `COc1ccc(C2=CSC3=NNC4(CCCCC4)NN23)cc1`, the AC50 under setting [1] is 35.5 µM [rising, single point].

As to `Nc1cc(=O)[nH]c(SCC(=O)Nc2nnc(-c3ccccc3)s2)n1`, under setting [1], the AC50 was 11.2 µM [falling, partial curve].

Turning to `Cc1c(NC(=O)c2ccc3c(c2)OCO3)cccc1-c1nc2ncccc2o1`, the concentration at half-maximal activity (AC50) under setting [1] was 0.92 µM [falling, full curve].

In the case of `Cc1cc(N2CCN(C(=O)c3cccs3)CC2)c(F)cc1[N+](=O)[O-]`, the AC50 under setting [1] is 35.5 µM [falling, single point].

In the case of `Cc1cccc(N2CCN(CC(=O)NCc3ccc(Cl)cc3)CC2)c1C`, under setting [1], the AC50 is 11.2 µM [falling, partial curve, poor fit].

Take `COC(=O)CNc1c(-c2ccccn2)nc2ccc(Br)cn12`: the half-maximal activity concentration (AC50) under setting [1] is 0.146 µM [falling, full curve, poor fit].

On to `CCn1c(O)c(N=NC(=O)CNc2cccc(C)c2)c2ccccc21`, for which the AC50 under setting [1] is 32.6 µM [falling, single point].

Consider `CCCOc1ccc(/C=N/Nc2cccc([N+](=O)[O-])c2)c(O)c1`, for which the half-maximal activity concentration (AC50) under setting [1] was 6.51 µM [rising, single point].

Turning to `O=C(CC1CC2CCC1C2)Nc1nc(-c2ccccn2)cs1` (stereo not drawn), the AC50 is 0.891 µM [falling, full curve, poor fit] under setting [1] and 3.98 µM [rising, partial curve, poor fit] under setting [2].

In the case of `CC(=O)NCC(=O)OCC(=O)c1ccc(Cl)cc1`, under setting [1], the AC50 is 20 µM [falling, partial curve, poor fit].

On to `CCOc1ccc(C=Nc2cccc3ncccc23)cc1`, for which the AC50 under setting [1] was 22.4 µM [falling, partial curve, poor fit].

`Cc1ccc(CNC(=O)CSc2nc3n[nH]c(C)c3c(=N)n2-c2ccccc2Cl)cc1`: the concentration at half-maximal activity (AC50) under setting [1] was 2.82 µM [falling, partial curve, poor fit].

On to `CC(=O)c1ccc(NC(=O)N2CCN(c3cccc(Cl)c3)CC2)cc1`, for which the concentration at half-maximal activity (AC50) under setting [1] was 23.1 µM [falling, single point].

With `CC(=O)OCCNc1cc(N2CCN(C)CC2)c2noc3c2c1C(=O)c1ccccc1-3`, under setting [1], the half-maximal activity concentration (AC50) was 29.1 µM [falling, single point].

Take `CCOc1cc(/C=N/NC(=O)c2cccnc2)ccc1OCC(=O)N(C)C`: the AC50 under setting [1] was 31.6 µM [falling, single point].

Turning to `COc1cnc(-c2ccccn2)nc1Oc1ccc(Cl)c2ccccc12`, under setting [1], the concentration at half-maximal activity (AC50) was 35.5 µM [rising, single point].

With `CCOc1cccc(C2c3c(oc4cc(C)c(C)cc4c3=O)C(=O)N2CCCN(C)C)c1` (stereo not drawn), the AC50 under setting [1] is 14.6 µM [falling, partial curve].

Turning to `O=C(N/N=C/c1ccncc1)c1cccs1`, under setting [1], the half-maximal activity concentration (AC50) was 14.1 µM [falling, partial curve].

As for `COC(=O)c1ccc(OCCOc2ccc(C(=O)OC)cc2)cc1`, under setting [1], the concentration at half-maximal activity (AC50) was 29.1 µM [rising, single point].

In the case of `COc1ccc(NC(=O)c2cc([N+](=O)[O-])ccc2O)cc1`, the half-maximal activity concentration (AC50) under setting [1] is 0.0794 µM [falling, full curve, poor fit] and the half-maximal activity concentration (AC50) under setting [2] was 11.2 µM [rising, partial curve, poor fit].

`O=C1C2C3C=CC(CC3)C2C(=O)N1/N=C/c1ccc(O)cc1` (stereo not drawn): the AC50 under setting [1] was 0.112 µM [falling, full curve, poor fit].
